# Percent effect of library compounds

Amino acid sequences for entries named in this document (tags omitted). Residues count along the entry.
UniProt Q4DA54, 1-478: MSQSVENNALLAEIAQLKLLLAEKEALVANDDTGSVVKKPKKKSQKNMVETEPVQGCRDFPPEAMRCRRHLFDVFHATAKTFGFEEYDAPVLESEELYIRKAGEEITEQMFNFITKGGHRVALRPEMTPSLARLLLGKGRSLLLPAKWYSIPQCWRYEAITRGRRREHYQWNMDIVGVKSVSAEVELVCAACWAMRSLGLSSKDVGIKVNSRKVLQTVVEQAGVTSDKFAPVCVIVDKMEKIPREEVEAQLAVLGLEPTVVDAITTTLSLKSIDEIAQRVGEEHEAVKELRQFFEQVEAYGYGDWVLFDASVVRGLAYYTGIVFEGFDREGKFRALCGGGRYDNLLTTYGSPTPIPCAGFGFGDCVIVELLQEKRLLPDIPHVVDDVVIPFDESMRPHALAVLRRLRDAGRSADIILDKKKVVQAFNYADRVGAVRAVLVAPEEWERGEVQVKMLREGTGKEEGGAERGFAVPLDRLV

Measurements from “University of Dundee, Small-Polar-MMV Screening Library” (2021), ChEMBL document CHEMBL3988442.

Each number is a percent effect as filed.
The record does not define 0% and 100%; most values in the screen are far below 50% and negative numbers occur (in some assays of this library far below -100).
This is an unselected part of the compounds tested.

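Enzyme assay of histidyl-tRNA synthetase; the read-out is not stated. Target: Histidine-tRNA ligase, Trypanosoma cruzi CL Brener (UniProt Q4DA54). Tested at 30 µM. Higher reads as stronger inhibition (inferred: compounds with an IC50 in retests scored well above the rest). Of about 69,000 compounds tested this way, about 31 (0.045%) reached 50% or more in at least one test.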

With COc1c(CNCc2ccc3c(c2)OCO3)c(C(C)C)nn1C the screen gave 4.624%. With Cc1cnn(C2CCCN(C(=O)c3cc(-c4cccs4)n[nH]3)C2)c1 (stereo unspecified) the screen gave 15.15%. Result for Cc1cc(N)nc(C2(C)CCCN2C(=O)Cc2ccc(F)cc2)n1 (stereo unspecified) was 7.605%. With Cc1noc(C)c1-c1n[nH]c2c1CN(S(=O)(=O)c1cccs1)CC2 the screen gave -3.571%.

For O=C(Nc1cnc2n1CCCC2)C1CCCN1C1CCNCC1 (stereo unspecified) the result was 16.87%. For CCCNC(=O)Cn1cc(OC)c(=O)cc1CSc1nc(C)cc(C)n1 the result was 9.135%. For O=C(NC[C@H]1OC[C@@H](NC2CCC(F)(F)CC2)[C@@H]1O)c1cccs1 the result was 4.348%. For Cc1n[nH]c(C(=O)NCc2ccnc(OCC(F)(F)F)c2)c1Br the result was 1.141%.

Cc1nc(C)n(CC2CCCN2CCc2ccncc2)n1 (stereo unspecified) gave 4.118%. With COCc1noc(C2(c3ccc(F)cc3)CCC2)n1 the screen gave 3.941%. For CN(C)C(=O)C1CCC2(CCN(C(=O)Nc3ccc(F)cc3)CC2)O1 (stereo unspecified) the result was 1.508%. With CC(=O)NCC(=O)N1CCC(c2cncc(Oc3cccnc3)n2)CC1 the screen gave -2.128%.

Cc1n[nH]c(C)c1NC(=O)CN1CCc2c(nc(C(C)C)n2C)C1 gave 5.128%. With CN(CCC#N)C(=O)CN1CCC(c2cc3ccccc3[nH]2)CC1 the screen gave 1.961%. For O=C(Nc1cccnc1)[C@H]1C[C@H]2OCC[C@H]2N(Cc2ccc(F)cc2)C1 the result was 7.438%. For CN(CCc1ccncc1)C(=O)c1sccc1OC(F)F the result was -2.128%.

Cc1cc(-c2nn(C)c(Cl)c2CN2CCOCC(O)C2)no1 (stereo unspecified) read 0.8264%. COc1ccc(-c2cc(C[C@@H]3C[C@H](N(C)C)C3(C)C)no2)cc1 gave -5.473%. CC(C)(C)n1ncc2c(=O)n(CC(=O)NCc3ccco3)cnc21 gave 2.062%. With O=C(NC[C@@H]1CCCO1)c1cccnc1N1CCCC1c1ccccc1 (stereo partly specified) the screen gave 12.5%.

For COCCNC(=O)Cn1cc(OCc2ccc(F)cc2)c(=O)cc1CO the result was 10.91%. CN(C(=O)CN1CCC(NC(=O)c2cccs2)CC1)c1ccccc1 gave 4.624%. Result for Cc1noc(C)c1C1CCCN1C(=O)c1cn2ccsc2n1 (stereo unspecified) was 5.603%. CC(=O)c1ccc(Cl)c(Cl)c1OCC(=O)NC(C)C gave 8.621%.

CC(=O)c1c(C)nn(CC(=O)N2Cc3cnc(CC(C)C)nc3C2)c1C gave 8.861%. Result for CCCc1nnc(NC(=O)NC(CCO)c2cccs2)s1 (stereo unspecified) was 6.14%. For COc1ccc(Cl)cc1CS(=O)(=O)Cc1nc(C2CC2)no1 the result was 4.255%. For O=c1[nH]c(COc2cccc(F)c2)nc2c1CCNC2 the result was 15.38%.

For C[C@@H]1C[C@@H]2CCN(Cc3nccs3)C[C@H]2O1 the result was 4.908%. With CN1CC(=O)N(c2cccc(F)c2)CC12CCN(Cc1cncn1C)C2 (stereo unspecified) the screen gave 7.527%. CCc1noc(CCC(=O)N[C@@H]2CC[C@@H](n3ccnc3C)[C@@H]2O)n1 read 6.844%. For COc1ncnc(N)c1CNCc1ccccc1-n1cccn1 the result was 13.07%.

For Cc1cccc2c1nc1n2[C@@H](CNC(=O)Cc2ccccc2)COC1 the result was 7.609%. Result for O=S(=O)(CCN1CCCCC1Cn1cncn1)c1ccccc1 (stereo unspecified) was 7.123%. With Cc1cccc(CC(=O)N2CCN(c3nccn3C)CC2)c1 the screen gave -23%. For COCCN1CCO[C@@H]2CN(C(=O)NCc3cccnc3)CC[C@@H]2C1 the result was 5.747%.

COc1ccc(-n2ccc(C(=O)NCCn3ccnc3)n2)cc1 gave 4.624%. For Cc1ccc(NC(C)C(=O)NCc2cccs2)cc1C (stereo unspecified) the result was -1.653%. Cc1ccc(C(=O)N2CCC3(CC2)c2ccccc2[C@@H](N)[C@@H]3O)cc1F gave 2.5%. With CC(C(=O)N1CCCCCC1)N1CCN(c2nccs2)CC1 (stereo unspecified) the screen gave -3.879%.

Result for O=C(Nc1cnccn1)[C@H]1COC[C@H]2CN(c3ncc(F)cn3)C[C@H]21 was 8.589%. For COc1ccc(Cl)cc1NC(=O)CCNc1ccc(C#N)cn1 the result was -1.064%. Result for CCc1ccccc1OCC(=O)Nc1ccnc(OCCN(C)C)c1 was 9.36%. Result for CN(Cc1ccco1)[C@@H]1CN(Cc2nccn2C)[C@@H]2CCCO[C@H]12 was 10.2%.

With Cc1ccc(-c2noc(C3CCN3C(=O)c3ccc(=O)[nH]n3)n2)s1 (stereo unspecified) the screen gave -1.13%. Result for CC(NC(N)=O)C(=O)NCc1ccc(Br)c(F)c1 (stereo unspecified) was 7.738%. For O=C1N(c2ccc(Br)cc2)Cc2nc(=O)[nH]n21 the result was -3.825%. CC(CNC(=O)N1CCS(=O)(=O)CC1)Cc1cccs1 (stereo unspecified) read -1.087%.

With CNC(=O)C1Cn2ccnc2C2(CCN(c3ccc(C)nn3)CC2)O1 (stereo unspecified) the screen gave 6.557%. For CC(SCCS(C)(=O)=O)c1nc(Cc2ccc(F)cc2)no1 (stereo unspecified) the result was 3.59%. COC(=O)NCC(=O)N1CCc2cc(Cl)cc(Cl)c2C1 read 1.345%. O=C1N(Cc2cccc(F)c2)CCC12CCCN(c1ncc(F)cn1)C2 (stereo unspecified) read 3.333%.

Result for Cc1cc(C)n(C2CCN(S(=O)(=O)N3CCC(C)CC3)CC2)n1 was 3.448%. For CC(C)(C)c1ncc(C(=O)NCc2cccc(C(=O)N3CCCC3)c2)s1 the result was 9.392%. With Cc1noc(C)c1CN1CCO[C@H]2CN(C3CCOCC3)C[C@H]21 the screen gave -0.8%. Result for Cc1noc(C)c1CN(C)C(=O)CCn1c(=O)n(C)c2ccccc21 was 10.1%.

Result for CN(C)Cc1nnc(C2CCCN(c3nccc4ccccc34)C2)n1C (stereo unspecified) was -8.696%. With CN(C)[C@@H]1CCN(c2ncccn2)[C@H]1Cc1ccncc1 the screen gave 0%. Result for O=C1N(c2cncnc2)CCC12CCCN(Cc1cccnc1)C2 (stereo unspecified) was 10.92%.

Some entries from above, unchanged:

SMILES,Percent Effect
Cc1cc(C)n(C2CCN(S(=O)(=O)N3CCC(C)CC3)CC2)n1,3.448
Cc1noc(C)c1CN(C)C(=O)CCn1c(=O)n(C)c2ccccc21,10.1
C[C@@H]1C[C@@H]2CCN(Cc3nccs3)C[C@H]2O1,4.908
CC(=O)NCC(=O)N1CCC(c2cncc(Oc3cccnc3)n2)CC1,-2.128
COc1ccc(Cl)cc1NC(=O)CCNc1ccc(C#N)cn1,-1.064
O=C1N(Cc2cccc(F)c2)CCC12CCCN(c1ncc(F)cn1)C2 (stereo unspecified),3.333